This note sets out measurements from US20030028002A1, “Cyclin D binding factor, and uses thereof” (published 2003).

Sequences of proteins named here, by UniProt entry; tags and fusion partners are left off. A change or cut given only in a name is not applied to a line headed by its entry.
UniProt Q8CE22: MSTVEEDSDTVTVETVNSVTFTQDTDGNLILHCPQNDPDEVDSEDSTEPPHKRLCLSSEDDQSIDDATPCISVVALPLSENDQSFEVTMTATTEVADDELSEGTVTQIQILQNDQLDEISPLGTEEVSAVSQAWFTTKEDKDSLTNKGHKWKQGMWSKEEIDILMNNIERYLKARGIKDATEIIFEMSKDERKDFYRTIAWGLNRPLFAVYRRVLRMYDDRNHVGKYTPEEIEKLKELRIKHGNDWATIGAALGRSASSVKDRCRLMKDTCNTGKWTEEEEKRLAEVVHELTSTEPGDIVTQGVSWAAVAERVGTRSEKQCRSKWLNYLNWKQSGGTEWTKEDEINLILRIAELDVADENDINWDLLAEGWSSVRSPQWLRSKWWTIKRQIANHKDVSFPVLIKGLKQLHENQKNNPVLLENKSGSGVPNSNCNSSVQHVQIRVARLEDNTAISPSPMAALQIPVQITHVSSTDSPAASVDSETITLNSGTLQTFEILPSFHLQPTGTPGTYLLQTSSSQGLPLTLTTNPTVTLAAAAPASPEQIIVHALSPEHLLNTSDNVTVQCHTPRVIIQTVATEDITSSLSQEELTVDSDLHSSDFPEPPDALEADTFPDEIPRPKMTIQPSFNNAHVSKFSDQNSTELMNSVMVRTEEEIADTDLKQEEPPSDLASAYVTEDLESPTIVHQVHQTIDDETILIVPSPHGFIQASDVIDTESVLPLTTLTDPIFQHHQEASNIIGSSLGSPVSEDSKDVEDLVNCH

The target of series [1] is DMP1 (Mus musculus) (UniProt Q8CE22). Description: competition with a labelled probe. Particulars: protein in a lysate after overexpression, protein details: baculovirus Sf9 lysate.
Series [2] concerns GST-Ets2 (contains complete Ets2 DNA-binding domain). The series can be described thus: competition with a labelled probe. The following applies: purified recombinant protein, protein details: GST, variant of BS1.
Series [3] concerns the target T1, DMP1 expressed in 293T cells (Mus musculus) (UniProt Q8CE22).
T1 sequence: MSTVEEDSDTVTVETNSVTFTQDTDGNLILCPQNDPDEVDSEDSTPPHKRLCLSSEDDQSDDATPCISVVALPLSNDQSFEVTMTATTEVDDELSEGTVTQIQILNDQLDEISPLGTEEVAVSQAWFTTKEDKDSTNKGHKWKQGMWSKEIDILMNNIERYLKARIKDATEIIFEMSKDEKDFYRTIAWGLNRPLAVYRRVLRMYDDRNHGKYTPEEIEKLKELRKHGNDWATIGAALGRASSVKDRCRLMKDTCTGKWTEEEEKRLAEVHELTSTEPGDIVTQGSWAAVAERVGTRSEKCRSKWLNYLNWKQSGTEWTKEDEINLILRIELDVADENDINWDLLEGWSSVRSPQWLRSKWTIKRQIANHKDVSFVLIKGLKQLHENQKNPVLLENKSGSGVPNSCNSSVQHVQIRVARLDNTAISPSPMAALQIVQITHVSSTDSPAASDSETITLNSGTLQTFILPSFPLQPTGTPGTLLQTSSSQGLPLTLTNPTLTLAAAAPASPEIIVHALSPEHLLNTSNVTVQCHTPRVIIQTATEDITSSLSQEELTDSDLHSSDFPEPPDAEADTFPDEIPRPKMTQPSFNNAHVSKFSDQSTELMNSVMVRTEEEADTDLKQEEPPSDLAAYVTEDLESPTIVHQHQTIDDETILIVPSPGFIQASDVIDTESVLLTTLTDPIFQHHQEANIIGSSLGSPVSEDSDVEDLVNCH
Description: activity in cells. The following applies: 7x M3 reporter, no transactivation; protein in cells; variant of BS1.

The target of series [4] is DMP1 endogenous (NIH-3T3 and CTLL extracts) (Mus musculus) (UniProt Q8CE22). Description: competition with a labelled probe. The following applies: protein in an extract.
Series [5] concerns the target DMP1 (Mus musculus) (UniProt Q8CE22). The series can be described thus: EMSA. The following applies: protein in a lysate after overexpression, protein details: baculovirus Sf9 lysate, label: 32P. A general note: Mobility shift assays separate free from complexed probe on a gel.
Series [6] has as its system GST-Ets2 (contains complete Ets2 DNA-binding domain). The series can be described thus: EMSA. The following applies: purified recombinant protein, protein details: GST, label: 32P.
Series [7] addresses DMP1 M1 (Mus musculus) (UniProt Q8CE22). The series can be described thus: EMSA. The following applies: protein in a lysate after overexpression; protein details: Flag; label: 32P.
Series [8] concerns the target DMP1 M10 (Mus musculus) (UniProt Q8CE22). Description: EMSA. Particulars: protein in a lysate after overexpression; protein details: Flag; label: 32P.
Series [9] concerns the target DMP1 M2 (Mus musculus) (UniProt Q8CE22). Description: EMSA. The following applies: protein in a lysate after overexpression; protein details: Flag; label: 32P.
Series [10] deals with DMP1 M3 (Mus musculus) (UniProt Q8CE22). Description: EMSA. The following applies: protein in a lysate after overexpression; protein details: Flag; label: 32P.
Series [11] has as its target DMP1 M4 (Mus musculus) (UniProt Q8CE22). Description: EMSA. The following applies: protein in a lysate after overexpression; protein details: Flag; label: 32P.
The target in series [12] is DMP1 M5 (Mus musculus) (UniProt Q8CE22). The series can be described thus: EMSA. The following applies: protein in a lysate after overexpression; protein details: Flag; label: 32P.
The target in series [13] is DMP1 M6 (Mus musculus) (UniProt Q8CE22). The series can be described thus: EMSA. The following applies: protein in a lysate after overexpression; protein details: Flag; label: 32P.
The target of series [14] is DMP1 M7 (Mus musculus) (UniProt Q8CE22). Description: EMSA. The following applies: protein in a lysate after overexpression; protein details: Flag; label: 32P.
For series [15], the target named is DMP1 M8 (Mus musculus) (UniProt Q8CE22). The series can be described thus: EMSA. The following applies: protein in a lysate after overexpression; protein details: Flag; label: 32P.
Series [16] has as its target DMP1 M9 (Mus musculus) (UniProt Q8CE22). The series can be described thus: EMSA. Particulars: protein in a lysate after overexpression; protein details: Flag; label: 32P.
Series [17] deals with DMP1 endogenous (NIH-3T3 and CTLL extracts) (Mus musculus) (UniProt Q8CE22). The series can be described thus: EMSA. Particulars: A-complex supershifted/depleted by DMP1 antisera; protein in an extract; label: 32P.
For series [18], the target named is DMP1 wild type (Flag) (Mus musculus) (UniProt Q8CE22). Description: EMSA. The following applies: NIH-3T3 transfection lysate; protein in a lysate after overexpression; protein details: Flag; label: 32P.
Series [19] has as its target DMP1 (bacterial, His-tagged polypeptide) (Mus musculus) (UniProt Q8CE22). The series can be described thus: SELEX. The following applies: 5' CCC preference less pronounced; purified recombinant protein; protein details: His; only the motif is given.
Setting [20] is: does not compete BS1 probe, variant of BS1.

The exact form of at least one protein or probe is not confirmed. For part of these data: A negative result means that nothing was seen under these conditions. For part of these data: Weaker means in comparison with the reference protein, sequence or condition of that experiment. For part of these data: Where cells or extracts were used, other partners may take part.

Take “AATTGACCAGGATGTAGGTACGC (double strand) [M4 oligo]”: the binding result was “binds more weakly” in series [1] (competes at high concentrations, variant of BS1) and “binds more weakly” in series [2] (high concentrations of M4 compete for BS1 binding).

Consider “AATTGACCCGGAAGTAGGTACGC (double strand) [M3 oligo (Ets-specific)]”, for which, in [3], the “activity on this sequence” value was “not active”. Moreover, the binding result in series [1] (does not compete BS1 or BS2 probes, variant of BS1) is “no binding”; in series [4] (M3 does not compete A-complex, variant of BS1), “no binding”; in [2] (competes BS1 probe), “binds”.

Take “AATTGACCCGGATGTAGGTACGC (double strand) [BS1]”: the binding result is “binds” in [5] (Sf9 lysate, poly(dI-dC), 1.5 mM MgCl2, 4 C, BS1 competes better than BS2); “binds” in series [6]; “binds” in series [4] (BS1 competes A-complex, label: 32P).

On to “AATTGACCCGTATGTAGGTACGC (double strand) [BS2]”, for which the binding result in [5] is on record as “binds”; in series [7], “binds”; in series [8] it was “binds”; in [9] it was “binds”; in series [10], “binds”; in series [11], “no binding”. Moreover, the binding result in series [12] is “binds”; in series [13] it was “no binding”; in series [14], “no binding”; in series [15], “no binding”; in [16] it was “no binding”; in series [17], “binds”. For the same sequence, the binding result in series [18] is on record as “binds”; in [6] (not detectable with labeled BS2, no competition of BS1), “no binding”.

On to “AATTGACCCTGCGGTAGGTACGC (double strand) [M1 oligo]”, for which the binding result in series [1] (setting [20]) is on record as “no binding”.

In the case of “AATTGATTTGGATGTAGGTACGC (double strand) [M2 oligo]”, the binding result in [1] (setting [20]) is “no binding”.

As for “AATTGGGACCCCGGATGCGGCAG (double strand) [ARF DMP1/Ets site oligo 23 bp]”, the binding result in series [1] (completely inhibits binding to 281 bp fragment, 200-fold excess) is “binds”.

For the sequence “GGATG (double strand) [GGATG-containing selected oligos]”, the selection result in series [19] is listed as “selected”.
